This passage reports log2 fold change results from the supplement of paper PMC12819154, “High-throughput peptide-centric local stability assay extends protein–ligand identification to membrane proteins, tissues and bacteria” (Nature Structural & Molecular Biology, 2025).

Protein sequences, listed by entry. Tags and fused reporters are not part of them. Lines headed by an entry give the natural chain unless they say otherwise; changes in a name come on top.
UniProt Q9Z0S3: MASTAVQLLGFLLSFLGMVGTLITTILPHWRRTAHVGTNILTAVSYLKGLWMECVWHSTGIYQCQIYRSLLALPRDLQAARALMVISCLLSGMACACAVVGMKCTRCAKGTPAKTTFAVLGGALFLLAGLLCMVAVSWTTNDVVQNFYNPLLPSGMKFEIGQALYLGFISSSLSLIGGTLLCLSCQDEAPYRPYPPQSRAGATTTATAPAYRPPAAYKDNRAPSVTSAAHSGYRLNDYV
UniProt Q9Z1Y4, whole entry: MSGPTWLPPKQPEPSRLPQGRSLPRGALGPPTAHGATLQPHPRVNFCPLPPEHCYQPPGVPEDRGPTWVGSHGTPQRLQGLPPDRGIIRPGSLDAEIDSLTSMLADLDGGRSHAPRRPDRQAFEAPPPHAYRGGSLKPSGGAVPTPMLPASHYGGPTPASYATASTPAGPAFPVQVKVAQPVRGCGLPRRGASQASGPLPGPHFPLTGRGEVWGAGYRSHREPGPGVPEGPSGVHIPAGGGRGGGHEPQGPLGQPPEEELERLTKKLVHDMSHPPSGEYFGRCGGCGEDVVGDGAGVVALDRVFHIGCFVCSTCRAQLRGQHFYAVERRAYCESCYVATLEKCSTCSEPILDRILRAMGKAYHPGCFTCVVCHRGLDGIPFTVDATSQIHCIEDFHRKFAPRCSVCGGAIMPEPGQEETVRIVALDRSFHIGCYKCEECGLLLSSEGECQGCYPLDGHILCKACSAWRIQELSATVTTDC
UniProt Q9Z0U1: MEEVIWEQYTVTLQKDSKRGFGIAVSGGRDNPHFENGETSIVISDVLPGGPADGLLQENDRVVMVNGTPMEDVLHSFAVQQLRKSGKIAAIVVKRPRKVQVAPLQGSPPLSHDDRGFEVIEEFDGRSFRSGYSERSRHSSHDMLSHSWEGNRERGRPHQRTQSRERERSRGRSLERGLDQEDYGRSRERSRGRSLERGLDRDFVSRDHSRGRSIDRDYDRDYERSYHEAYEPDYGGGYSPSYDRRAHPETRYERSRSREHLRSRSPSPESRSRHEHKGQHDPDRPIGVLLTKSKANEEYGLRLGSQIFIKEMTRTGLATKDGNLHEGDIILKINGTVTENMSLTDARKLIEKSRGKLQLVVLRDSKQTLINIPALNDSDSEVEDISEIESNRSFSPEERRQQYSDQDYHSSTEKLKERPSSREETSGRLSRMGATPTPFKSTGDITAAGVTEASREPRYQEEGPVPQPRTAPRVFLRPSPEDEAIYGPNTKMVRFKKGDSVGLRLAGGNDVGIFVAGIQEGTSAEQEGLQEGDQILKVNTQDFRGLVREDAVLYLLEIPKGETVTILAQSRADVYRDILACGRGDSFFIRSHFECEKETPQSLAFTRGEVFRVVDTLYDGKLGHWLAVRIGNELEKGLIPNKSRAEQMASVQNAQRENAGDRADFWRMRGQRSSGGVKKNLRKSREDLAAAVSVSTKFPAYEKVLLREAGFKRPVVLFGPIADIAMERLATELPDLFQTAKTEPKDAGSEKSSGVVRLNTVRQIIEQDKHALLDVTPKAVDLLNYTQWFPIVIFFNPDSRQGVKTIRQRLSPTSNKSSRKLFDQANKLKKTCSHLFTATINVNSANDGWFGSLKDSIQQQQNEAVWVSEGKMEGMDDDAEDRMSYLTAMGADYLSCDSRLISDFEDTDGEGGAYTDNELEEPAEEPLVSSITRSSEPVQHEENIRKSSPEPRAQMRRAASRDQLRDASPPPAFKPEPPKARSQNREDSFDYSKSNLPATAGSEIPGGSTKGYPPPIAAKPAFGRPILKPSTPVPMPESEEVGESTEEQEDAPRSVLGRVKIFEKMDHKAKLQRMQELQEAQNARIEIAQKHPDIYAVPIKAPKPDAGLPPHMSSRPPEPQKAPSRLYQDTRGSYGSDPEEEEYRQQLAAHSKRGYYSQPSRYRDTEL
UniProt Q9WVS6: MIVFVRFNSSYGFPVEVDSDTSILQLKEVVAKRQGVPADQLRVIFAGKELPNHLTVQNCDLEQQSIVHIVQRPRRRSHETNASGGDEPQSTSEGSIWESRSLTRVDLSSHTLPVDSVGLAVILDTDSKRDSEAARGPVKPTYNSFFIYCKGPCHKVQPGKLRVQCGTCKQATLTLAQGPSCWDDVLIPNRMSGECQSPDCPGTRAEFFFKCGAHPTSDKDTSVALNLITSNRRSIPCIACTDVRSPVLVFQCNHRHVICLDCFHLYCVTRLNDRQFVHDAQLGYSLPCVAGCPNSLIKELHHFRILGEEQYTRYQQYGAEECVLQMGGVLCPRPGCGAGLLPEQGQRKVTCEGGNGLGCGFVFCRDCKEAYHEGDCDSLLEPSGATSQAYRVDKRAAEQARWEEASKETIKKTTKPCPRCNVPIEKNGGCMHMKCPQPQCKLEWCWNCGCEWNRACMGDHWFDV
UniProt Q9Z2G9: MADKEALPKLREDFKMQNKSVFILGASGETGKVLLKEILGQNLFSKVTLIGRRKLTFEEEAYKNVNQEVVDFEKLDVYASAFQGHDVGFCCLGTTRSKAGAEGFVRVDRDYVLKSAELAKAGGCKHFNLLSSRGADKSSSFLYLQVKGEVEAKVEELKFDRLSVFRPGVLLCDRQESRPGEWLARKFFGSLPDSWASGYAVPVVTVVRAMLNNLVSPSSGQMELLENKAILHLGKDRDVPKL
UniProt S4R1M9: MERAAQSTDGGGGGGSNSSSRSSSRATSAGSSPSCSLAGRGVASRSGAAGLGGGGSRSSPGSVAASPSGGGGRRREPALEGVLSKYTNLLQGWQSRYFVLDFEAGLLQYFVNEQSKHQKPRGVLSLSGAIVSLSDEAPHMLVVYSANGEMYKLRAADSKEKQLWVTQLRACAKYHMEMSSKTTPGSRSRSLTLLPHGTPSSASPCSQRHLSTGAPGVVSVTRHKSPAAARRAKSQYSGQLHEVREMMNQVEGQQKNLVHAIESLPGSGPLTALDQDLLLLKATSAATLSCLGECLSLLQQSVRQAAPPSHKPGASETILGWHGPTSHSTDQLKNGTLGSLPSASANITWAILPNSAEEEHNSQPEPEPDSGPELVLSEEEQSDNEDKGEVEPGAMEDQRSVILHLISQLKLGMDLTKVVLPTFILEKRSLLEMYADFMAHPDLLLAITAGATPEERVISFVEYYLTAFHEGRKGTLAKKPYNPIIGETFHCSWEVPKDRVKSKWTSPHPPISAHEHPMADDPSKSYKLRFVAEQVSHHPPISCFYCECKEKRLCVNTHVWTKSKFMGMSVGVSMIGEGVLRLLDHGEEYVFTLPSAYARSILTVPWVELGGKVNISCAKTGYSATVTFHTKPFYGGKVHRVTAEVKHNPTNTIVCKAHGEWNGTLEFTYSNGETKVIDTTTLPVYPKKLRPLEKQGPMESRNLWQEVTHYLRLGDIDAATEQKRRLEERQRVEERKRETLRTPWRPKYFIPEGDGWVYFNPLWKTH
UniProt Q9Z0X1, whole entry: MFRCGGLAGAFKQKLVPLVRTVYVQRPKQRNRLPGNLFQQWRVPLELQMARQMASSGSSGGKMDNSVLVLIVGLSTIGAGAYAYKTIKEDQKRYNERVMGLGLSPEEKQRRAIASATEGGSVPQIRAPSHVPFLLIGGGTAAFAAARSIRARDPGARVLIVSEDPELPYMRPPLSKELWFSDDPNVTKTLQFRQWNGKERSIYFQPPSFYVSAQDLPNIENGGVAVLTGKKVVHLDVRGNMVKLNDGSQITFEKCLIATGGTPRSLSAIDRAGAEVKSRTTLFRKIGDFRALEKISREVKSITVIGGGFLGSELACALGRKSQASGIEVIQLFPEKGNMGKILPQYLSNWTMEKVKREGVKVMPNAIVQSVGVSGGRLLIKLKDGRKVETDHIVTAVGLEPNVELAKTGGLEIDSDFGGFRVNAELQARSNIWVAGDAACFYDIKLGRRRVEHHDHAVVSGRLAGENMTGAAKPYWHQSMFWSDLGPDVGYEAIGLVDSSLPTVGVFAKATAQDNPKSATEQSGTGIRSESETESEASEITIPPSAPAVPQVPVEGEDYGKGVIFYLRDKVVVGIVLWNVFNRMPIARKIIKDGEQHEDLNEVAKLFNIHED
UniProt Q9Z223: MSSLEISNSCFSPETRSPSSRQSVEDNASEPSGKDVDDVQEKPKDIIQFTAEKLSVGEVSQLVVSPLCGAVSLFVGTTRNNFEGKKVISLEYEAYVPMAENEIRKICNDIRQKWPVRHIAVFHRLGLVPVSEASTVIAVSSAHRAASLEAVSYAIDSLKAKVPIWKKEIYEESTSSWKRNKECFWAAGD
UniProt Q9Z120: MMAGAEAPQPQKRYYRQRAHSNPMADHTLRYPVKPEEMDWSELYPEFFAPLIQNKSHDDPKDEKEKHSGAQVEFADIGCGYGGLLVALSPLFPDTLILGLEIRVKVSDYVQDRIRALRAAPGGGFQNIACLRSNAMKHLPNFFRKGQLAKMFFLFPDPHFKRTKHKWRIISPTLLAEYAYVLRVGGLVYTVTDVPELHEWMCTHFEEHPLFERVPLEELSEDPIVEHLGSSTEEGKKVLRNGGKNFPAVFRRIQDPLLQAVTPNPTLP
UniProt Q9Z0Y1, whole entry: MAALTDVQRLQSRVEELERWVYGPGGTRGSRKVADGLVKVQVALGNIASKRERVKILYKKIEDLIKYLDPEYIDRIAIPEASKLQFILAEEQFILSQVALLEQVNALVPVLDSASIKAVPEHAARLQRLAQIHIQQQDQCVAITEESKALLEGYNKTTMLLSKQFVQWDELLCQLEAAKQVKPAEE
UniProt Q9Z0F8: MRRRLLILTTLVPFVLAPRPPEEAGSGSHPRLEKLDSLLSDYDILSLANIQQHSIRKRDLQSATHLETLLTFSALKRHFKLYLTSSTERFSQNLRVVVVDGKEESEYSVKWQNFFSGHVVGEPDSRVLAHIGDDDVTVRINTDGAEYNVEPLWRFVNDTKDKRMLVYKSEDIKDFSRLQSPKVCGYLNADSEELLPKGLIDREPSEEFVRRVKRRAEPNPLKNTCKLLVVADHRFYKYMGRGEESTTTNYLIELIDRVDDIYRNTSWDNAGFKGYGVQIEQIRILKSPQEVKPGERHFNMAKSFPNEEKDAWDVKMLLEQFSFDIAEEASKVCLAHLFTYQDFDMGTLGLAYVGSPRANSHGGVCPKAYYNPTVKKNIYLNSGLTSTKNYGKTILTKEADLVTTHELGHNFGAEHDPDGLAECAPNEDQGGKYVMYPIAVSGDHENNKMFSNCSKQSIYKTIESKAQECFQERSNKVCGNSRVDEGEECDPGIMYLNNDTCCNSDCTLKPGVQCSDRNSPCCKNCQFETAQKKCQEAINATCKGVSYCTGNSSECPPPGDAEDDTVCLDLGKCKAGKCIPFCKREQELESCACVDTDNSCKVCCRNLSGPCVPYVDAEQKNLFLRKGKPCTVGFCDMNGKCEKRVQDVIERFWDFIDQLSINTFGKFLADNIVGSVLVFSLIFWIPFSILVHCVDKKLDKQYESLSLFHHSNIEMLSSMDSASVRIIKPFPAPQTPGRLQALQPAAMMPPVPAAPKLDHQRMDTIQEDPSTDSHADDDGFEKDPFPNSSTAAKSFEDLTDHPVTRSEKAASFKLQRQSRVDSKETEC
UniProt Q9Z1E3: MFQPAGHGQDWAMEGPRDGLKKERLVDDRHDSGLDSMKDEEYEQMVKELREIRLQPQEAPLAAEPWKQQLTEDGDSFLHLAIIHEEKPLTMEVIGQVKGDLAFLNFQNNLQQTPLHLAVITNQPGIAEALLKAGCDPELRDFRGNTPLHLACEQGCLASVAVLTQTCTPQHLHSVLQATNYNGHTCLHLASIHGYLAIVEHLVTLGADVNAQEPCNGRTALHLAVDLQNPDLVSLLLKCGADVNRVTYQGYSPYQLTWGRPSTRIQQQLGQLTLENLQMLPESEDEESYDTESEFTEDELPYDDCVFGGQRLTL
UniProt Q9Z210: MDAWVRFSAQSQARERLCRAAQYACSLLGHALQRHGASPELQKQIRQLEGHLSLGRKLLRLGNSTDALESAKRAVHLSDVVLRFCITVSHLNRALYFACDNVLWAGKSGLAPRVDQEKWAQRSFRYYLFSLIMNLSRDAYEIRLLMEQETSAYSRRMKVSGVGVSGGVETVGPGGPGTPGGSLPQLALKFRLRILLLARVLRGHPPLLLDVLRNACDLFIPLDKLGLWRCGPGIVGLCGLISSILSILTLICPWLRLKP
UniProt Q9Z0M5: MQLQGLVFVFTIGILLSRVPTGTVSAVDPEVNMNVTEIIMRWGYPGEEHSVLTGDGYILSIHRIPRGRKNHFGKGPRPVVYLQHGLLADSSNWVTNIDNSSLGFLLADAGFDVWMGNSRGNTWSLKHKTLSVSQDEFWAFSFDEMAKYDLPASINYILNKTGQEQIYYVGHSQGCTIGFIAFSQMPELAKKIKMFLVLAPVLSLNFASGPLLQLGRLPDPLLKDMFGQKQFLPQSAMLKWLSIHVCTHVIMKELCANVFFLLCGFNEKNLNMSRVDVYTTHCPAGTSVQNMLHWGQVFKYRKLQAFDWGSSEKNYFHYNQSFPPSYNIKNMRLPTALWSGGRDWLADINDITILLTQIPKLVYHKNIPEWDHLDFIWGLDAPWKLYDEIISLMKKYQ

Compound in this test: CN[C@@H]1C[C@H]2O[C@@](C)([C@@H]1OC)n1c3ccccc3c3c4c(c5c6ccccc6n2c5c31)C(=O)NC4 [staurosporine]
Put plainly: log2 fold change of tryptic peptide abundance, ligand vs vehicle (limited proteolysis) (log2 ratio); higher = more trypsin-susceptible (destabilized). The following applies: ligand concentration: 20 uM; sample: mouse liver crude lysate; replicate design: treated separately.

The list shows a part of the results. Most values lie at the level of the controls, where differences are scatter.

With “UniProt Q9WVH4 (peptide sequence: GSSFPYTAK, peptide start residue: 410)”, the log2 fold change was -0.125.

With “UniProt Q9Z1G4 (peptide sequence: HLGTLNFGGIR, peptide start residue: 675)”, the log2 fold change is 0.191.

As to “UniProt Q9Z2D3 (peptide sequence: SGAIGTVVGK, peptide start residue: 89)”, the log2 fold change came out at 0.105.

Turning to “UniProt Q9Z2Q2 (peptide sequence: VSVENSLK, peptide start residue: 235)”, the log2 fold change amounted to 0.33.

Take “UniProt Q9Z0S3 (peptide sequence: AGATTTATAPAYRPPAAYKDNR, peptide start residue: 200)”: the log2 fold change was -0.125.

In the case of “UniProt Q9Z1Y4 (peptide sequence: GALGPPTAHGATLQPHPR, peptide start residue: 26)”, the log2 fold change is -0.109.

As to “UniProt Q9Z0U1 (peptide sequence: VFLRPSPEDEAIYGPNTK, peptide start residue: 474)”, the log2 fold change is -0.495.

As for “UniProt Q9Z1X4 (peptide sequence: HAGKKPLHGGQQK, peptide start residue: 731)”, the log2 fold change is -0.803.

Regarding “UniProt Q9Z0E0 (peptide sequence: GLSEDFQR, peptide start residue: 224)”, the log2 fold change is -0.377.

Turning to “UniProt Q9Z0Y9 (peptide sequence: LVAAQQQCNRR, peptide start residue: 215)”, the log2 fold change was -0.252.

Take “UniProt Q9Z1F9 (peptide sequence: LFKDDIR, peptide start residue: 258)”: the log2 fold change is 0.31.

Regarding “UniProt Q9Z2V4 (peptide sequence: LTPIGYIPK, peptide start residue: 552)”, the log2 fold change amounted to 0.0941.

For the target “UniProt Q9Z2Q6 (peptide sequence: MKDEELR, peptide start residue: 347)”, the log2 fold change stood at 0.289.

On to “UniProt Q9WVS6 (peptide sequence: ILGEEQYTR, peptide start residue: 305)”, for which the log2 fold change came to 0.269.

Take “UniProt Q9Z2G9 (peptide sequence: SKAGAEGFVR, peptide start residue: 97)”: the log2 fold change was -0.35.

Take “UniProt S4R1M9 (peptide sequence: SSPGSVAASPSGGGGR, peptide start residue: 58)”: the log2 fold change is -0.199.

On to “UniProt Q9Z2F2 (peptide sequence: SLAYNIIVLTHR, peptide start residue: 118)”, for which the log2 fold change was -0.131.

Consider “UniProt Q9Z1Q5 (peptide sequence: NSNPALNDNLEK, peptide start residue: 120)”, for which the log2 fold change was 0.219.

Regarding “UniProt Q9Z0R6 (peptide sequence: GNMELEKR, peptide start residue: 375)”, the log2 fold change was -0.339.

Turning to “UniProt Q9Z0X1 (peptide sequence: VEHHDHAVVSGR, peptide start residue: 451)”, the log2 fold change is -0.48.

Regarding “UniProt Q9Z223 (peptide sequence: QSVEDNASEPSGK, peptide start residue: 22)”, the log2 fold change is 0.194.

For the target “UniProt Q9Z131 (peptide sequence: AVEDSKPYWEAR, peptide start residue: 97)”, the log2 fold change is -0.211.

As for “UniProt Q9Z130 (peptide sequence: LDGKLIDPK, peptide start residue: 94)”, the log2 fold change was found to be 0.501.

As for “UniProt Q9Z120 (peptide sequence: SHDDPKDEKEK, peptide start residue: 56)”, the log2 fold change was determined as 0.321.

“UniProt Q9Z0Y1 (peptide sequence: YLDPEYIDR, peptide start residue: 67)”: the log2 fold change was found to be 0.0881.

“UniProt Q9Z0P4 (peptide sequence: KVLGLQDTIK, peptide start residue: 315)”: the log2 fold change was determined as 0.273.

In the case of “UniProt Q9Z0W3 (peptide sequence: GFDPAQPLNVR, peptide start residue: 656)”, the log2 fold change was determined as 0.407.

With “UniProt Q9Z0N2 (peptide sequence: AGGEAGVTLGQPHLSR, peptide start residue: 2)”, the log2 fold change was -0.211.

As to “UniProt Q9Z0F8 (peptide sequence: IIKPFPAPQTPGR, peptide start residue: 726)”, the log2 fold change was -0.365.

Consider “UniProt Q9Z1E3 (peptide sequence: HDSGLDSMKDEEYEQMVK, peptide start residue: 30)”, for which the log2 fold change came out at 0.203.

For the target “UniProt Q9Z160 (peptide sequence: LAWLSSMTK, peptide start residue: 972)”, the log2 fold change was -0.267.

Regarding “UniProt Q9Z2J0 (peptide sequence: TPEDPGSPK, peptide start residue: 3)”, the log2 fold change was -0.271.

Consider “UniProt Q9Z210 (peptide sequence: HGASPELQK, peptide start residue: 35)”, for which the log2 fold change was -0.637.

“UniProt Q9Z0M5 (peptide sequence: WGYPGEEHSVLTGDGYILSIHR, peptide start residue: 42)”: the log2 fold change is -0.274.
